Measurements from patent US20210069333A1, “CANNABINOIDS IN COMBINATION WITH NON-CANNABINOID CHEMOTHERAPEUTIC AGENTS” (GW Pharma Limited, priority 2008, published 2021).
Some of these results come from one statement about several compounds together.

System: human U87 MG astrocytoma cells
Assay: Cell viability of human U87 MG astrocytoma cells in culture
Conditions: U87MG, 0.1 ug/ml and 0.25 ug/ml, single cannabinoid, FIG. 2a
Protocol: Tetrahydrocannabinol (THC) and cannabidiol (CBD) in the form of cannabis plant extracts were dissolved in ethanol to a concentration of 100 mM this was stored at −20° C. until required.
Before use the cannabis plant extracts were further diluted to the desired concentration, ensuring that the concentration of ethanol was below 0.001%.
U87 human glioma cells were used throughout this experiment. The cells were maintained at 37° C. in a humidified atmosphere with 5% CO2 and 95% air.
Cells were cultured in a 75 cm^2 culture flask in Dulbecco's Modified Eagle Medium (DMEM), which had been supplemented with 4 mM L-glutamine, 100 units/ml penicillin, […], 1% sodium pyruvate, 1% non-essential amino acids and 10% heat-inactivated fetal bovine serum.
The viability of the human U87 MG astrocytoma cells were examined at various cannabinoid concentrations. The THC and CBD extracts were compared against pure THC and CBD.
The methods used were as described in Example 1 above.
The action of THC, CBD, and a 1:1 ratio mix of THC and CBD were studied at different concentrations on two cell lines: U87MG and T98G.
Cell viability assays were performed as described in Example 1 above.

CCCCCc1cc(O)c2c(c1)OC(C)(C)[C@@H]1CCC(C)=C[C@@H]21 [THC, tetrahydrocannabinol]
cell viability: greater than 90%
